We go through 107 sequences from PubChem BioAssay AID1508600 (Functional Genomics Laboratory (NCATS/FGL), 2020).

The campaign covered roughly 53,000 sequences. About 3,700 (7%) were called active.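 Rule for the calls: active = gene knockdowns whose robust z-score for IL-1 alpha signal is at least 2 or at most -2, so actives lie on both sides; inactive = the rest.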 The list shows a part of the results.

The test is described as follows: Components of the Cytosolic LPS Sensing Pathway: Gene Identification via Genome-wide siRNA Screen.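 Note: robust z of the log signal after scaling to non-targeting control siRNA wells of the plate.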 The settings on record: RAW264.7 macrophages, IL-1a HTRF, actives lie on both sides, screened at 100 nM (by protocol), cells primed 5 h with Pam3CSK4 first. A digest of the protocol:
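RAW264.7 mouse macrophages reverse-transfected with single siRNAs (100 nM final) for 48h, primed with Pam3CSK4 for 5 hours, then transfected with LipidA for 24 hour. Supernatant IL-1a read by HTRF; values normalized to negative-control median, log-transformed robust z-scores.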
With GGACCAAACGAUUUCUCACTT against Olfr284, the z-score was inactive: -0.438.
With GGACUUAGGUUUGUUUAAATT against Frat1 the figure was inactive: -0.347.
Take GCGAACUCAAGCUGUAACCTT against Grhpr: the z-score is inactive: -0.665.
To GGACAACGUGGACUACUGGTT against Pcdh15 belongs inactive: -0.835; to GGAAGCUGUCCAAAAUGAGTT against Hnf4a, active: 2.55; to GGUCCAGAUCAGUUGACAGTT against Srsf5, inactive: 0.812.
CCAGGAUUCGGACAAAACUTT against Mettl16: the z-score was inactive: -1.47.
On to GGAAGAGGAAGAUAUUGAUTT against Bbx, for which the z-score was inactive: -0.799.
As for CCACCACCUAUUACAAUGATT against Lcn5, the z-score is inactive: 1.72.
For the sequence GCUUCAAUAACUGCGCAAGTT against Zkscan2, the z-score is inactive: 0.547.
To GGUUUUCCUAAACUCUUGATT against Usp6nl belongs inactive: -0.3.
With GCAACUGGUGAUAAGGUGUTT against Flywch1 the figure was inactive: 0.486; with GAACGACACAAGGCCUUCATT against Olfr585, inactive: 0.9; with GGGACUUCAACAGAUAUGUTT against Kdm4b, inactive: -1.92.
On to GGCAAUCUACUCAUUGUUGTT against Olfr1239, for which the z-score is inactive: -0.719.
With GGAGAUGAAGAGGUUGGUUTT against Olig3, the z-score was inactive: -0.569.
To GGUGGUAAAAGAUACGACCTT against Atp6v1e1 belongs inactive: 0.0668; to GGCAUUCUGAAAACAACUCTT against Hvcn1, active: 2.02.
On to GCCGAUGUCAGUGGUUAAATT against Bmx, for which the z-score was inactive: 0.198.
GCAUAGUUCAGAUUUACAGTT against Zfp27: the z-score was inactive: -0.745.
With CCAUAGACUUCAUUGUACATT against Lipf the figure was inactive: -0.434; with GGAUACAGAAGGUUUUCUUTT against Abcd4, inactive: -0.137; with CCACUCAAUCCUUAGCAAGTT against Abi2, inactive: -1.31.
With GCUCCACCAAACUAAUGCGTT against Polrmt the figure was inactive: 0.816.
To GGCCAAAGUCCACACAAGUTT against Naaa belongs active: 2.12; to CCCAGCUCAGGUUUCUAUGTT against Dact2, inactive: 0.0333.
With GGCAGAGGAAAUCAUGAAGTT against Clpp, the z-score was inactive: -1.05.
To GGUAUAGCUACCAUUUUUCTT against Ggct belongs inactive: -1.05; to GGAACAUUGACCAGAUAGUTT against Ankrd44, inactive: -1.44; to GGUCAACCUCAAAGUCUUUTT against Il17a, inactive: 0.581.
With CGAUGGGUUGUAUGAGACCTT against Fut10 the figure was inactive: -0.231.
With GCAGUAUAAGAAUUUCAUGTT against Thada the figure was inactive: -0.325; with GGGACACAACCACAAUAACTT against Susd3, inactive: -0.876.
For the sequence GGACGCGGAGAAGAAAGUUTT against Ybx3, the z-score is inactive: -0.425.
To GCUUUCAUAGAAUCUUGGCTT against Rnf24 belongs inactive: 0.709; to GCAAUGAACCCUAGAAUUATT against Col4a1, inactive: 0.36; to GGCUUGGUAGCCAUCCUCATT against Lrrc27, inactive: 1.1.
To GGGUAUUGGUUUUAGAGCATT against Emd belongs inactive: 0.37; to CCGGGUAGUGAGUAAGCUUTT against Neu2, active: -3.51.
To GGAUGGCAGCUUUGACCUUTT against Cdc42ep2 belongs inactive: 0.566.
As for “GCCUGGCUUGUAACUUCACTT against 1700034H15Rik”, the z-score is inactive: 0.0703.
With GCCUGUAUCAAUAAUUCAATT against Asprv1 the figure was inactive: 0.178; with GGAAGUGAUUGCCAUCAAATT against Sh3bp4, inactive: -0.984; with GCUGCCAUUUAUCAACCUUTT against Esrp1, inactive: 0.981.
To GCGCAGAACCCAGAUGAAGTT against Necap2 belongs inactive: 0.836; to GGAGAUCCGUCGAAUCAACTT against Anxa4, active: 3.19; to GCUUUCUCUUAUGGAUCUATT against Olfr700, inactive: 0.966.
With GGGCCUGUGAAACUUGUGCTT against Mrps16 the figure was inactive: -0.385.
As to GGGACUGAAAUCUAUUUUGTT against Zfp217, the z-score is active: 2.16.
With CCUGACAAGACAUUUCAAATT against Dusp22, the z-score was inactive: -0.987.
With GGGAAAUUUGUCCUGUUAATT against Hibadh the figure was inactive: -0.3; with GGAGAAGUCAUUGUUUUUGTT against Klhdc2, inactive: -0.493; with GCCAUACCCUCCAAUAAAGTT against Cfap410, inactive: -1.47.
As to “GCUCAGUAUGUUUGGGAGUTT against 5330416C01Rik”, the z-score is inactive: 1.98.
To GCAGGUUUAUGAAAGCUUUTT against Rictor belongs inactive: -1.33; to GGACCUAGUGCGUUCCAAATT against H1f7, active: 2.92; to GGACCGAUAUAACCUACCCTT against Rps4x, inactive: 0.0626.
With GGCACGAUAUUAUUUUCAGTT against Lrfn5 the figure was inactive: -0.229.
To GGCUUUUUUGCCAUUGCUATT against Wnt9b belongs inactive: 0.19; to GGAAACAGCUGCUAAGUGCTT against Hsd17b11, inactive: -1.38.
GGCAGCGAUUGACAAAAUGTT against Eefsec: the z-score was inactive: -0.756.
Turning to GCUAUCAUAUGUGCCCUAATT against Mrgprx1, the z-score is inactive: -0.702.
With GGUAUGGGAGAUGACUCUATT against Fastkd5 the figure was inactive: 0.0645.
For CCACCAUCAUGAGAGAGGATT against Olfr350, the z-score is inactive: 0.00462.
To GGUGCUCUGCCAAACUGUUTT against Mmaa belongs inactive: 0.518; to CCAUGCAACUUUAAAAAGCTT against Tmem69, inactive: -0.738.
With “GUCUCUUUGCCCUGUGCUATT against Vmn1r239-ps” the figure was inactive: 0.0206; with GGGUACCUACAUAGACAAGTT against Rps11, inactive: 0.0651.
Turning to GGAACUACUACUCACCUAUTT against Trhr, the z-score was inactive: -0.776.
Regarding GGCCAAGUGAUAGAGUUCATT against Crygd, the z-score was inactive: 1.22.
With GCCCUUGAGUGAAAGAGAUTT against Clspn the figure was inactive: -1.91; with GCUUAAUCAGCUAAUCAAUTT against Sult1c2, inactive: 0.699; with GCAUACCAUCUUAUUUUGGTT against Sptlc1, inactive: 0.159.
To GGGAGCAACUGUGUCAAAUTT against Tspan10 belongs inactive: 1.06.
With GGCGGACAUCACUUAUGAGTT against Gopc the figure was inactive: -0.862; with GGCAUCCAAAAUUUUCAACTT against Nxph3, inactive: -0.29.
Take CUUUAGACUUCAUGCUCUCTT against Olfr128: the z-score is inactive: 0.909.
With CCUACGAGGAUUAUGUUGATT against Myl6 the figure was inactive: -0.736; with GGAUUGACUUCAUGGAUAUTT against Btc, inactive: 0.492; with GGCUCAAAGGAGGGUAGAGTT against Lcn8, active: 3.18.
To GGCAACAUAGUAAUUGUGGTT against Olfr1223 belongs inactive: -0.957.
With GGAAGAUGAGUUUCAUAAUTT against Htra3 the figure was inactive: 1.45.
GCAUUUGAUGAAGACUCGATT against Barx2: the z-score was inactive: 0.467.
As to “GCAAGUCAAGUGGGCCAAATT against G430095P16Rik”, the z-score is inactive: 0.249.
Regarding GGGCUUUGAGCGUGAGUACTT against Adcy7, the z-score is inactive: 0.765.
To GGUACUUCUUCCUUGCUCATT against Itm2c belongs inactive: 0.158; to GGCCAUUAACAGCAGUCUGTT against Kifc5b, inactive: -1.71; to GGAGUUGAAAGCUCUGCUCTT against S100a7a, inactive: 1.39.
To GCAUUUCGUCAGGGCAAAATT against Fuca1 belongs inactive: -0.515; to GCCUUAAAAGACCUGACGUTT against Abca8b, active: 2.12.
Take GGAGAUUCUGUCAGACAGGTT against Pomgnt1: the z-score was inactive: -1.21.
Regarding GGUGAUGACCAACUCAGUGTT against Prcc, the z-score is inactive: -0.13.
To GCCGAUGAUGAGAAACGACTT against Cd2 belongs inactive: -0.279; to GGGAAGGUCACCGUCAAGUTT against Ppp1r14b, inactive: -1.95.
With GAAGUUACAGUGAAGUCUCTT against Zfp395 the figure was inactive: -0.829.
To AUACGAUGUUGUGGUCAGCTT against Dhrs7c belongs inactive: -0.297.
Take GGACCAUAGAUGAGAAAAGTT against Npvf: the z-score is inactive: 0.322.
With CCUAGGAUAGAGAUUGUUGTT against Ndufaf3 the figure was inactive: 0.135; with GGCAAAAGGAAGAGGACGATT against Brd4, inactive: -1.99.
To GGACGAAUUUCUUACAGUATT against Mterf4 belongs active: 2.2; to CCGUCUUAAUGGAUGAUUGTT against Dlec1, inactive: 0.395; to GGAUGCUCUCCAAUGAAUCTT against Arhgap28, inactive: -0.358.
With GACAGGAAGUUGAUGAAUUTT against Raet1a the figure was inactive: -0.468; with CCUUAGAGAGCUACGCCAUTT against Mrgprh, inactive: 0.262.
GCAGUGUUAGACUUUUAUGTT against Ermard: the z-score is inactive: 0.749.
On to CGGAAGUCUACACGUCUUGTT against Arpin, for which the z-score is inactive: 0.963.
As to GGAGAUAAUCCUUGUCACGTT against Whamm, the z-score was inactive: 0.592.
